The campaign covered roughly 580,000 compounds. About 6,100 (1.1%) were called active. Another 15% or so got no clear call; they are omitted. The call rests on the fitted dose curve; in most records, active means well fitted inhibition curve with a large enough effect; inconclusive means small, poorly fitted or top-dose-only effect, or another doubt; inactive means no such curve, though single readings can be large or run the other way. This is a selection; strong and weak results do not stand in their true shares. Where no call is shown, the source filed none.
target: Polyunsaturated fatty acid lipoxygenase ALOX12 (Homo sapiens) (UniProt P18054); assay: Primary qHTS assay for inhibitors of human arachidonate 12S-lipoxygenase (ALOX12): Round 2; conditions: purified 12hLO, xylenol orange hydroperoxide absorbance; activity change, negative = inhibition: at 0.00344 µM
Procedure, shortened: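 Hydroperoxide product was detected by ferrous iron/xylenol orange as the 573 to 405 nm absorbance ratio. Arachidonic acid at 40 uM (final) was turned over for 30 min at room temperature by 150 nM human 12hLO, pH 7.0 Hepes buffer, after 15 min compound preincubation.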
On the % scale 0 is the no-effect control and ±100 the full control effect; potency means the concentration at half of the fitted maximal effect.

Protein sequences, listed by entry. Tags and fused reporters are not part of them. Lines headed by an entry give the natural chain unless they say otherwise; changes in a name come on top.
UniProt P18054: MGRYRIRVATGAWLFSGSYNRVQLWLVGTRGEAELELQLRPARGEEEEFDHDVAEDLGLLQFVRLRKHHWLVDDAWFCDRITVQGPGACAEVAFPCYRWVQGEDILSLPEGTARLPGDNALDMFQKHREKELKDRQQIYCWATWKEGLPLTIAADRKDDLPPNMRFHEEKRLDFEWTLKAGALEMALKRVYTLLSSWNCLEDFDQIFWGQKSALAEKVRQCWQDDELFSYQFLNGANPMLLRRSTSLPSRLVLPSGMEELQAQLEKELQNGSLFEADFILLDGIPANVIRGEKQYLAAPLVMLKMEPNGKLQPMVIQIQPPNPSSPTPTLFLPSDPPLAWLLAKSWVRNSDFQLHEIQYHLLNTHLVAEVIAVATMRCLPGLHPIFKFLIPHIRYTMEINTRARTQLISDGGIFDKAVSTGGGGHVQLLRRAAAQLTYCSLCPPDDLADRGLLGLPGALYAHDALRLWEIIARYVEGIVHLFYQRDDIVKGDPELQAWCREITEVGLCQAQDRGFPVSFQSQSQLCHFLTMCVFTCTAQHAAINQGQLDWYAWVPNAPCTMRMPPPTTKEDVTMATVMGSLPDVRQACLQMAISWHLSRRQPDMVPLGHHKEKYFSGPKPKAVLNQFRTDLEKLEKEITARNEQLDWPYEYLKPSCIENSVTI

| SMILES | activity change, negative = inhibition [%] | Potency |
| --- | --- | --- |
| NCCCC[C@H](N[C@@H](CCc1ccccc1)C(=O)O)C(=O)N1CCC[C@H]1C(=O)O | 16 |  |
| COC1=C(OC)C(=O)C(CCCCCCCCCCO)=C(C)C1=O | 16.5 |  |
| CC(C)n1c(/C=C/[C@@H](O)C[C@@H](O)CC(=O)O)c(-c2ccc(F)cc2)c2ccccc21 | 33.4 |  |
| CCNC(=O)N1CCN(CCCC(c2ccc(F)cc2)c2ccc(F)cc2)CC1 | -13.2 |  |
| CCCNC(=O)N[C@@H]1CCC[C@@H](C(=O)N(CC)CC)CC(=O)N(C)C1 |  | active: 39.8 µM |
| CC(=O)C1=CCC(c2ccc(C)o2)N(S(=O)(=O)c2ccc(C)cc2)C1 (centres undefined) |  | active: 10 µM |
| COc1cc2c(cc1OC)-c1cc(=Nc3c(C)cc(C)cc3C)n(C)c(=O)n1CC2 | -0.655 |  |
| CCOC(=O)OC(C)OC(=O)[C@@H]1N2C(=O)[C@@H](NC(=O)[C@H](N)c3ccccc3)[C@H]2SC1(C)C (some centres undefined) | -1.79 |  |
| CC1(C)Cc2c(ccc3ccccc23)/C(=C/C#N)N1 |  | active: 39.8 µM |
| Cc1c(OCC(F)(F)F)ccnc1CS(=O)c1nc2ccccc2[nH]1 (centres undefined) | -4.58 | active: 12.2 µM |
| COc1ccc(/C=C2\SC(=S)N(CC(=O)OCC(=O)Nc3cc(Cl)cc(Cl)c3)C2=O)cc1 |  | active: 39.8 µM |
| O=C1NC(=O)[C@@]2(CCOc3ccc(F)cc32)N1 | 16.9 |  |
| O=C1c2ccccc2NC(c2ccc(-c3ccc(C(F)(F)F)cc3)o2)N1O (centres undefined) |  | active: 28.2 µM |
| COc1cccc(C2=Cc3ccc(F)cc3C(CC(C)=O)N2c2ccc(C#CC3(O)CCCCC3)cc2)c1 (centres undefined) |  | active: 15.8 µM |
| FC(F)(F)c1cccc(/C=N/Nc2ccc(Cl)cc2)c1 |  | active: 7.08 µM |
| Nc1nc(Cl)nc2c1ncn2[C@@H]1O[C@H](CO)[C@@H](O)[C@@H]1F | -24.7 |  |
| CN1CC[C@H](c2c(O)cc(O)c3c(=O)cc(-c4ccccc4Cl)oc23)[C@H](O)C1 | 24 |  |
| O=C(NCN1CCOCC1)c1cnccn1 | -9.96 |  |
| O=C(O)Cn1c(=O)n(Cc2ccc(Br)cc2F)c(=O)c2ccc(Cl)cc21 | -12.6 |  |
| COc1ccc2c(c1)CC/C(=C\c1ccc(Br)o1)C2=O |  | active: 22.4 µM |

Compounds above that contain fluorine (nine):

| SMILES | activity change, negative = inhibition [%] | Potency |
| --- | --- | --- |
| CC(C)n1c(/C=C/[C@@H](O)C[C@@H](O)CC(=O)O)c(-c2ccc(F)cc2)c2ccccc21 | 33.4 |  |
| CCNC(=O)N1CCN(CCCC(c2ccc(F)cc2)c2ccc(F)cc2)CC1 | -13.2 |  |
| Cc1c(OCC(F)(F)F)ccnc1CS(=O)c1nc2ccccc2[nH]1 (centres undefined) | -4.58 | active: 12.2 µM |
| O=C1NC(=O)[C@@]2(CCOc3ccc(F)cc32)N1 | 16.9 |  |
| O=C1c2ccccc2NC(c2ccc(-c3ccc(C(F)(F)F)cc3)o2)N1O (centres undefined) |  | active: 28.2 µM |
| COc1cccc(C2=Cc3ccc(F)cc3C(CC(C)=O)N2c2ccc(C#CC3(O)CCCCC3)cc2)c1 (centres undefined) |  | active: 15.8 µM |
| FC(F)(F)c1cccc(/C=N/Nc2ccc(Cl)cc2)c1 |  | active: 7.08 µM |
| Nc1nc(Cl)nc2c1ncn2[C@@H]1O[C@H](CO)[C@@H](O)[C@@H]1F | -24.7 |  |
| O=C(O)Cn1c(=O)n(Cc2ccc(Br)cc2F)c(=O)c2ccc(Cl)cc21 | -12.6 |  |

More results.

| SMILES | activity change, negative = inhibition [%] | Potency |
| --- | --- | --- |
| Cc1ccc(NC(=O)c2cc(-c3ccc[nH]3)n[nH]2)cc1F |  | active: 10 µM |
| O=C(O)Cc1csc(-c2ccc(Cl)cc2)n1 | 6.74 |  |
| CCn1c(CCCOc2ccc(Cl)cc2Cl)n[nH]c1=S |  | active: 25.1 µM |
| Cc1ccc(NS(=O)(=O)c2cc([N+](=O)[O-])ccc2NNC(=S)Nc2cc(C)ccc2C)c(C)c1 |  | active: 25.1 µM |
| CCOc1cc2cc(C(=O)c3ccccc3O)cnc2cc1OC |  | active: 8.91 µM |
| CCCCCN(CCCOC)C(=O)C(CCC(=O)O)NC(=O)c1ccc(Cl)c(Cl)c1 (centres undefined) | -26.8 |  |
| Cc1ccc(NC2=C(Cl)C(=O)OC2OC(=O)c2ccc(C)cc2)cc1 (centres undefined) |  | active: 7.94 µM |
| NC(CO)(CO)CO | 20.6 |  |
| CN(C)CCN(Cc1cccs1)c1ccccn1 | -24.1 |  |
| COc1ccc2cc1Oc1cc3c(cc1OC)CC[N+](C)(C)[C@H]3Cc1ccc(cc1)Oc1c(OC)c(OC)cc3c1[C@@H](C2)[N+](C)(C)CC3 | -55.3 |  |
| Clc1ccc(C(Cn2ccnc2)OCc2c(Cl)cccc2Cl)c(Cl)c1 (centres undefined) | 10.6 |  |
| CO/N=C(/C(=O)N[C@@H]1C(=O)N2C(C(=O)OCOC(=O)C(C)(C)C)=C(C)CS[C@H]12)c1csc(N)n1 | -2.9 |  |
| OCCCc1ccccc1 | -32.6 |  |
| NCCS(=O)(=O)O | 16.9 |  |
| CCCCS(=O)(=O)N[C@@H](Cc1ccc(OCCCCC2CCNCC2)cc1)C(=O)O | -8.69 |  |
| NNC(=S)Nc1ccc(Br)cc1 |  | active: 7.08 µM |
| Cc1ccc(S(=O)(=O)NC(=O)NN2CC3CCCC3C2)cc1 (centres undefined) | 31.5 |  |
| CCCCCC(C)N (centres undefined) | 49.2 |  |
| COc1ccc2cc(CCC(C)=O)ccc2c1 | 19 |  |
| NC(=O)NC1N=C([O][Al])NC1=O (centres undefined) | 1.32 |  |

| SMILES | activity change, negative = inhibition [%] | Potency |
| --- | --- | --- |
| CCC(NC(=O)C1CC1)c1ccc(C)cc1 (centres undefined) |  | active: 5.01 µM |
| C#CCN(C)Cc1ccccc1 | -21.1 |  |
| O=C(CCCN1CC=C(n2c(=O)[nH]c3ccccc32)CC1)c1ccc(F)cc1 | -8.31 |  |
| C[C@@]12C(=O)OC(=O)[C@]1(C)C1CCC2O1 | 16.7 |  |
| Cc1ncc([N+](=O)[O-])n1CCO | -6.16 |  |
| CCN(CC)CCSC(=O)C(c1ccccc1)c1ccccc1 | 18.7 |  |
| CCN(Cc1ccncc1)C(=O)C(CO)c1ccccc1 (centres undefined) | 10 |  |
| COc1ccc(CCN2CCC(Nc3nc4ccccc4n3Cc3ccc(F)cc3)CC2)cc1 | 18.1 |  |
| C/C(=N/Nc1ccccc1)c1ccc([N+](=O)[O-])cc1 |  | active: 1.58 µM |
| COC(=O)[C@H]1[C@H](CO)[C@H]2Cn3c(ccc(Br)c3=O)[C@H]2N1C(=O)c1ccccn1 |  | active: 0.794 µM |
| COCc1c(C(C)C)nc(C(C)C)c(/C=C/[C@@H](O)C[C@@H](O)CC(=O)O)c1-c1ccc(F)cc1 | 10.1 |  |
| Cc1cnc(CNc2ccnc(-c3ccc(C(=O)N(C)C)cc3)n2)cn1 |  | active: 35.5 µM |
| Cc1ccc(CNC(=S)Nc2ccc3c(c2)c(=O)n(C)n3Cc2cccc(C(F)(F)F)c2)cc1 |  | active: 17.8 µM |
| CC(C)C[C@H](NC(=O)[C@H](CCc1ccccc1)NC(=O)CN1CCOCC1)C(=O)N[C@@H](Cc1ccccc1)C(=O)N[C@@H](CC(C)C)C(=O)[C@@]1(C)CO1 | 25.3 |  |
| Cc1ccc(-c2cc(C(=O)N3CCN(c4ccc(F)cc4)CC3)c3ccccc3n2)o1 |  | active: 14.1 µM |
| O=C(O)c1[nH]n(-c2ccc(S(=O)(=O)O)cc2)c(=O)c1N=Nc1ccc(S(=O)(=O)O)cc1 | -21.5 |  |
| NCC1CCC(C(=O)Oc2ccc(CCC(=O)O)cc2)CC1 (centres undefined) | 35.3 |  |
| Oc1ccc(/C=N/N(Cc2ccccc2)c2ccccc2)c(O)c1O |  | active: 39.8 µM |
